# Results as given in patent US10945972B2, “Particulate materials” (Nektar Therapeutics, priority 2002, dated 2021).
# Structures can show the parent of a compound that is named as a salt.
# Experiment: Emitted dose from Turbospin passive inhaler (Example 11)
# Conditions: for Left in Capsules (%): ± is RSD
smiles,measurement,setting,value
"CC(C)C[C@H]1C(=O)N2CCC[C@H]2[C@]2(O)O[C@](NC(=O)[C@@H]3C=C4c5cccc6[nH]c(Br)c(c56)C[C@H]4N(C)C3)(C(C)C)C(=O)N12 [SEDS bromocriptine, bromocriptine mesylate]",ED drops (flow rate dependence),,8-20%
same,Left in Capsules (%),"fill weight 4.0 mg, flow rate 28.3 LPM",−1.5 ± −134%
same,Left in Capsules (%),"fill weight 4.0 mg, flow rate 60 LPM",0.5 ± 347%
same,Left in Capsules (%),"fill weight 8.0 mg, flow rate 28.3 LPM",10.5 ± 118%
same,Left in Capsules (%),"fill weight 8.0 mg, flow rate 60 LPM",−0.1 ± −2320%
same,ED at high flow rates,regardless of fill weight,> 80%
